This passage reports binding results from patent publication US20170210809A1 (DYAX, published 2017).

The chains behind the UniProt entries cited, without tags or fusion partners. Residues count along the entry.
UniProt P21860, residues 20-643: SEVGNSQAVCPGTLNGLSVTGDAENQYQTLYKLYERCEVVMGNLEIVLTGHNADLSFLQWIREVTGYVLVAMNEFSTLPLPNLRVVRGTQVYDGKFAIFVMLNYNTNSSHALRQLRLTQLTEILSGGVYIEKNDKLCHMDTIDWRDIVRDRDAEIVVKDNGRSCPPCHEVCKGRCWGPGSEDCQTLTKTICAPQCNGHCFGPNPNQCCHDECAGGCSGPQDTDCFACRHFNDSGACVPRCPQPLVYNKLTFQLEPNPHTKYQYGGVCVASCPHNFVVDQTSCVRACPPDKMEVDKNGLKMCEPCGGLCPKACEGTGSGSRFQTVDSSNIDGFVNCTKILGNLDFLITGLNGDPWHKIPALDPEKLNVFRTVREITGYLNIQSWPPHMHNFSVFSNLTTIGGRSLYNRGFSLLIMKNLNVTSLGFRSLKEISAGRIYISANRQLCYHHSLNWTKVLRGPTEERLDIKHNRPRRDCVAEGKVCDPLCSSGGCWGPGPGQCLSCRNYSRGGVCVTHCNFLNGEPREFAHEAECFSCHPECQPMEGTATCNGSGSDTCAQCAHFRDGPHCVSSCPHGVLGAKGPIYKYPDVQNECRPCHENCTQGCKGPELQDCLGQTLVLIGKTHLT

No constants are given. Whether binding was seen depends on the method and setting. Some entries that bind do so weakly or less than the wild type.

In this experiment the target is ErbB3 (as used in the competition assays) (human) (UniProt P21860). The experiment is described as follows: competition assays.

B1: SEQ ID NO 44 (scFv)
scFv: EVQLLESGGGLVQPGGSLRLSCAASGFTFSVYDMYWVRQAPGKGLEWVSYIYSSGGDTDYADSVKGRFTISRDNSKNTLYLQMNSLRAEDTATYYCARASTNSIYDAMDVWGQGTTVTVSSASTGGGGSGGGGSGGGGSDIQMTQSPSSVSASVGDRVTITCRASQDITNWLAWYQQKPGKAPTLLIYDASTLQSGVPSRFSGSGSGTDFTLTISSLQPEDFATYFCQQANGFPLTFGGGTKVEIK
As to B1, the binding entry was “binds”.

B2: SEQ ID NO 33 (scFv)
scFv: EVQLLESGGGLVQPGGSLRLSCAASGFTFSAYNMRWVRQAPGKGLEWVSVIYPSGGATRYADSVKGRFTISRDNSKNTLYLQMNSLRAEDTAVYYCARGYYYYGMDVWGQGTLVTVSSASTGGGGSGGGGSGGGGSQSVLTQPPSASGTPGQRVTISCSGSDSNIGRNYIYWYQQFPGTAPKLLIYRNNQRPSGVPDRISGSKSGTSASLAISGLRSEDEAEYHCGTWDDSLSGPVFGGGTKLTVLS
With B2, the binding result is reported as “binds”.
